# From publication PMC5996148
# “And” between values parts separate entries of the source, which are not always exact repeats. Identical values can stand only once. The list shows a part of the results. For some of these results: The source does not settle which construct or isoform was used.
# Columns and labels:
# Assay in all cases: protein microarray (ProtoArray v5.0), streptavidin-Alexa Fluor 647
# Conditions in all cases: 3'-biotin; 20 mM Tris (pH 7.5), 5 mM MgCl2, 100 mM KCl, 0.1% Tween-20, A/T-rich and random oligonucleotide blockers; temperature not stated; high values mean tight binding
# RAB3C (human) = tested on: RAB3C (human)
# RAB9A = biological target: T1, RAB9A (UniProt P51151)
# T1 sequence: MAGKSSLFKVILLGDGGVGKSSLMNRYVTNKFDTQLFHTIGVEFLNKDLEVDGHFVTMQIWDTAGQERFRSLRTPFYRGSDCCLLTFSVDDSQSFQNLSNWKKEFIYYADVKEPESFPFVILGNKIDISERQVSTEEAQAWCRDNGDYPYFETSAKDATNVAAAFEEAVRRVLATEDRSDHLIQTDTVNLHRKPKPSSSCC
# RABEP2 (human) = tested on: RABEP2 (human)
# RABL5 (human) = tested on: RABL5 (human)
# RAD51AP1 = biological target: T2, RAD51AP1 (UniProt Q96B01)
# T2 sequence: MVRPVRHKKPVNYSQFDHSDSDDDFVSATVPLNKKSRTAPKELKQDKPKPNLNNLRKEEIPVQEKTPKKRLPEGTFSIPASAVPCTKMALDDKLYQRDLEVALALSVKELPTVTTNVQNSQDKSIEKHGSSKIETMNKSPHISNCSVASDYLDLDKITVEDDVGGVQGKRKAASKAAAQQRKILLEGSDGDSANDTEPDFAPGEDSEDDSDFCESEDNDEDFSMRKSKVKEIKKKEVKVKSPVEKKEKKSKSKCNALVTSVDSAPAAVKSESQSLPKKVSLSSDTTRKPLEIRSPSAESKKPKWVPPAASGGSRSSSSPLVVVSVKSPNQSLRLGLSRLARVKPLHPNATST
# RAP1GDS1 (human) = tested on: RAP1GDS1 (human)
# RAP2C (human) = tested on: RAP2C (human)
# RASGRP3 (human) = tested on: RASGRP3 (human)
# RBM33 (human) = tested on: RBM33 (human)
# RBM9 (human) = tested on: RBM9 (human)
sequence,measurement,setting,value
GGTGACAGGGGTATGGGGAGGGG [G4-2 biotinylated (Ct1)],binding signal,RAB3C (human),-0.384 z-score
same,binding signal,RAB9A,-0.383 z-score
same,binding signal,RABEP2 (human),-0.39 z-score
same,binding signal,RABL5 (human),-0.389 z-score
same,binding signal,RAD51AP1,6.79 z-score
same,binding signal,RAP1GDS1 (human),-0.402 z-score and -0.399 z-score
same,binding signal,RAP2C (human),-0.367 z-score
same,binding signal,RASGRP3 (human),-0.384 z-score
same,binding signal,RBM33 (human),-0.367 z-score
same,binding signal,RBM9 (human),-0.387 z-score
